Measurements taken from the supplement of paper PMC5949888.
Most values lie at the floor of the assay. Slopes are relative: functional sequences can read slightly below zero.

test system: Saccharomyces cerevisiae PS128 hsf1 delta, HSF1(1-493) fusion; test: growth estimate (transactivation domain function in HSF1 fusion, heat-shock survival) (a.u. (slope of normalised read count over time)); higher = stronger growth at 37°C, i.e. more transactivation activity; conditions: library: random library

Substance | growth estimate
YGVGPHTILEYRGTGFGDRR | < -0.25
PAGRIVKVARKLTWCLLL | < -0.25
HDQKMASSRSRIETADQIQD | < -0.25
SDIIAVGMTPTGGVKAFADT | < -0.25
CGCCSWDGDARGPTANWGFS | 0.81
YQRGVRFVIRRGPQPRALVH | < -0.25
FERGLHGGRRRSRCGYRRRG | < -0.25
YQATRGRWPSVL | < -0.25
NQGRGRQLAGRTAQSKAAPW | < -0.25
VESATVLVGEFYVALPC | < -0.25
EVDIETNGHRVAGWSPRDGV | < -0.25
SETSAPLHRRYLPRIKDIPL | < -0.25
RVSLGYTETHPSRAYLAKNH | < -0.25
GLFVPTGADTFTLSRTGPTI | < -0.25
YLQCNSPECR | < -0.25
HVYNWAVPLPQA | < -0.25
WSCRR | < -0.25
LVAERGTLEQTLNVRCKSYL | < -0.25
TFSEDCKSRCIIGAMKNRGG | -0.228
RVYRNKASECFPSTTEVRQL | < -0.25
CVVG | < -0.25
PFTSG | < -0.25
RRI | < -0.25
FILQQLLLAVLCSSSPVCVV | < -0.25
SHRCV | < -0.25
EMGEPRLSVNRMSL | < -0.25

Look-ups from the list.
growth estimate, CVVG is entered as < -0.25
growth estimate, WSCRR is entered as < -0.25
growth estimate, SETSAPLHRRYLPRIKDIPL is entered as < -0.25

Next results

Substance | growth estimate
ERMA | < -0.25
GVKY | < -0.25
FQDTEYCLGRVGNRQRFRVL | < -0.25
DNANIRRDGVRPSMRRSRPA | < -0.25
PCYIRVPRCGFNLTGEYIPC | < -0.25
TLLGFHRERRGVVPKQSRKP | < -0.25
PVHRYLDKGTSRDRLGLTRS | < -0.25
GCLYYADGR | < -0.25
SCRCACNYSFGRGERGIGAR | < -0.25
TIVFEFLEYYGLRLMQTLM | < -0.25
IKIMSIGGQYRFSRSGLPAV | < -0.25
SSSQ | < -0.25
FLLITLTSGFSVGMQVSHW | < -0.25
CSAYSPSAESSWLGIGKTWC | < -0.25
CDNYPATRIQ | < -0.25
RSGRLEVLKSYSPRTPVQRV | < -0.25
VPGGISNGGNRRLGDGLEKP | < -0.25
MLRRA | -0.243
AGY | < -0.25
YVLAHVSESWKRSVLIPLTS | < -0.25
SEWSIESAVLRPRRARWTGN | -0.243
AEAELDLGYIPNTLGDTPQD | < -0.25
GLWLFSRRLLCRSTGRAIRP | < -0.25
PQRAFSVWPRDPSL | < -0.25
EGGYVSP | < -0.25
GQGICAEYFLGGAERLMPFY | < -0.25

Substance | growth estimate
VLRCNWILHFFRRCECGPRV | < -0.25
GLPRCSAIYWAYSCGHRLLQ | < -0.25
LRPPEYPQSLCLFIAERLTE | < -0.25
AGGLPGRCRKKVR | < -0.25
KCFTQPVVT | < -0.25
RCTRVDSE | < -0.25
SRCVSGAS | < -0.25
VGYQLVAWGYATGTLNTSTP | < -0.25
VGGVKARLAQTQGSQLSGLD | < -0.25
ELVHFPRLITA | < -0.25
HDIARATRQSNIHGVNS | < -0.25
NIRLSTDSVPNRRRPVYTTI | < -0.25
MGRLTPPGHLSSGL | < -0.25
LAVDVEGLRYIKVGMLGTGN | < -0.25
VLVHFGSTFADASKGARSVV | < -0.25
RFGNEVYVHSELQVSTTETL | < -0.25
WKVALRHISLARGDLVGRPA | < -0.25
TGTAGISAETS | < -0.25
LLGTRQFLNIATDMQGERSE | < -0.25
FNPLLPRMGGIQSIITANSP | < -0.25
RRAGHVGRTTRGFGTTLRDK | < -0.25
KIL | -0.237
CFHDAMPRELGSAAIIDAYY | < -0.25
AIGRHIL | < -0.25
GVGRTYI | < -0.25
SVHVYI | < -0.25
